Data source: PubChem BioAssay AID686937 (Drosophila RNAi Screening Center, 2013)

Purpose: 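Genes whose loss weakens secretory pathway function in fly cells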 (primary screen)
System: Drosophila S2 cells expressing secreted horseradish peroxidase
Reagents: long dsRNA against Drosophila genes
Timing: about 5.5 days (5 days dsRNA, then 12 h reporter induction)
Challenge: reporter expression induced after 5 days of dsRNA, read 12 h later; inducer not stated
Measured: 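Chemiluminescent measurement of peroxidase in the medium 12 h after reporter induction, following 5 days of dsRNA, given as a z-score per plate; higher means more secretion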
Direction: z-score: higher = more reporter secreted into medium
In all, the deposit lists about 23,000 reagents; this is a random part of those with a known target gene and a result. 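Reduced-secretion tags in replicate 1 do not always agree with the z-scores; no criterion for assigning the tags was given.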 The numbers tell different reagents against one gene apart. Names joined by + are all predicted targets of the reagent. Further read-outs or replicates are left out here. No sequences are given here. Not stated in the record: the amount of reagent.

How did the screen score Acbp4?
z-score, replicate 1: 0.17

For Hsp70Bb + Hsp70Bbb, what does the deposit list?
z-score, replicate 1: 0.32

For EMC3, what was measured?
z-score, replicate 1: -0.23

What did the screen give for Alp9?
z-score, replicate 1: 0.4

What did the screen give for cas?
z-score, replicate 1: 0.19

With Vha13, what does the deposit list?
z-score, replicate 1: -0.05

For CG16998, what does the deposit list?
z-score, replicate 1: 0.29

With CG13131, what does the deposit list?
z-score, replicate 1: 0.07

Which result is listed for Tsp3A?
z-score, replicate 1: 0.18

For her, what does the deposit list?
z-score, replicate 1: -0.1

What did the screen give for dare + CG30033?
z-score, replicate 1: 0.31

What is on record for sbm?
z-score, replicate 1: 0.52

With RpS9, how do the results read?
z-score, replicate 1: -3.77

In a second layout: 3 of the entries above.
Hsp70Bb + Hsp70Bbb
- z-score, replicate 1: 0.32

EMC3
- z-score, replicate 1: -0.23

Alp9
- z-score, replicate 1: 0.4

Next reagents:
For mute #1, how do the results read?
z-score, replicate 1: -1.43

How did the screen score mute #2?
z-score, replicate 1: -1.04

Which result is listed for CG13739?
z-score, replicate 1: -2.82

What is on record for RpS15?
z-score, replicate 1: -3.99

For hale, how do the results read?
z-score, replicate 1: 0.17

With CG15870, what does the deposit list?
z-score, replicate 1: 0.12

For CG13494, how do the results read?
z-score, replicate 1: -0.14

How did the screen score lcs?
z-score, replicate 1: 0.51

How did the screen score mRpS31?
z-score, replicate 1: 0.27

With CG10445, how do the results read?
z-score, replicate 1: 0.03

How did the screen score CG7142?
z-score, replicate 1: 0.41

With CG7304, what does the deposit list?
z-score, replicate 1: 0.29

Which result is listed for CG7309?
z-score, replicate 1: 0.18

With unpg, what does the deposit list?
z-score, replicate 1: 0.13

With CG13784 #1, what was measured?
z-score, replicate 1: 0.08

What is on record for CG13784 #2?
z-score, replicate 1: 0.29

What did the screen give for CG6583?
z-score, replicate 1: -0.04

Which result is listed for CG32373?
z-score, replicate 1: 0.24

For CG10000, how do the results read?
z-score, replicate 1: 0.13

How did the screen score CG33458?
z-score, replicate 1: -0.37

Which result is listed for CG10171?
z-score, replicate 1: 0.06

Which result is listed for Glo1?
z-score, replicate 1: 0.45

What did the screen give for skd?
z-score, replicate 1: 0.03

Which result is listed for modSP #1?
z-score, replicate 1: 0.23

For modSP #2, what was measured?
z-score, replicate 1: -0.1

For modSP #3, what was measured?
z-score, replicate 1: -0.27

With wntD, how do the results read?
z-score, replicate 1: 0.36
